The list shows a part of the results.
Assays:
Experiment in all cases: protein microarray (ProtoArray v5.0), streptavidin-Alexa Fluor 647
Settings in all cases: 3'-biotin; 20 mM Tris (pH 7.5), 5 mM MgCl2, 100 mM KCl, 0.1% Tween-20, A/T-rich and random oligonucleotide blockers; temperature not stated; high values mean tight binding
USP53 (human) = tested on: USP53 (human)
[1] = tested on: UV excision repair protein RAD23 homolog A (human)
UXS1 (human) = tested on: UXS1 (human)
Ubiquilin-4 (human) = tested on: Ubiquilin-4 (human)
[2] = tested on: Ubiquilin-like protein (human)
[3] = tested on: Ubiquinone biosynthesis protein COQ9, mitochondrial (human)
[4] = tested on: Ubiquitin carboxyl-terminal hydrolase 24 (human)
[5] = tested on: Ubiquitin-conjugating enzyme E2 Z (human)
[6] = tested on: Uncharacterized aarF domain-containing protein kinase 5 (human)
[7] = tested on: Uncharacterized protein C11orf48 (human)

Sequence: GGGAGGCTGAGGCAGG [G4-1 biotinylated (PQS2)]
- binding signal (USP53 (human)): -0.309 z-score
- binding signal [1]: -0.302 z-score
- binding signal (UXS1 (human)): -0.25 z-score
- binding signal (Ubiquilin-4 (human)): -0.348 z-score
- binding signal [2]: -0.307 z-score
- binding signal [3]: -0.319 z-score
- binding signal [4]: -0.338 z-score
- binding signal [5]: -0.305 z-score
- binding signal [6]: -0.335 z-score
- binding signal [7]: -0.337 z-score
